From PubChem BioAssay AID624297 (National Center for Advancing Translational Sciences (NCATS), 2012)
Hit rate of the full screen: of about 340,000 compounds, about 6,200 (1.8%) were called active. Inconclusive means that the source gave no clear call. Such entries were picked first, then a sample of the others. The call rests on the fitted dose curve; in most records, active means well fitted activation curve with a large enough effect; inconclusive means small, poorly fitted or top-dose-only effect; inactive means no such curve, though single readings can be large or run the other way. Potencies of inconclusive entries are doubtful fits and often do not repeat.

Test: A quantitative high throughput screen for small molecules that induce DNA re-replication in SW480 colon adenocarcinoma cells. Further: nearly all actives have a fitted effect of over 55% in size. On re-replication activation: % of control where 0% means no effect.
Conditions: Hoechst DNA content imaging, 48 h; re-replication activation: at 46.1 µM (top of the series) unless noted
In short: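 Image-based read-out: total Hoechst fluorescence of nuclei (405 nm excitation, 500-530 nm emission), with hits raising the fraction of high-intensity nuclei. SW480 colon cells incubated 48 hr with compounds at 37 C.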
Potency means the concentration at half of the fitted maximal effect.

SMILES | re-replication activation | Potency
COc1ccc(CCC(=O)Nc2ccc(N3CCOCC3)c(S(=O)(=O)Nc3ccc(OC)cc3)c2)cc1 | inactive: -2.55% | –
COc1ccc(/C=N/OC/C(O)=C(\C#N)c2nc3ccccc3[nH]2)cc1 | – | inconclusive: 20.6 µM [activator, partial curve, poor fit]
CC(=O)Nc1ccc(NS(=O)(=O)c2ccc3c(c2)oc(=O)n3C)cc1 | inconclusive: -21.8% [activator] | –
COc1ccc(-c2c(=O)n(OCc3nc4ccccc4[nH]3)c3ccccc3[n+]2[O-])cc1 | inactive: 13.4% | –
Cc1ccc2nc3c(cc2c1)c(C)nn3-c1ccccc1 | – | active: 7.31 µM
O=S(=O)(c1ccc(F)cc1)n1cnc2ccccc21 | inactive: 7.5% | –
Cc1c(NC(=O)C(C)C)cccc1-c1nc2ncccc2o1 | inactive: -8.99% | –
O=C(CN1CCN(C(C(=O)Nc2ccc(F)cc2)c2ccccc2)CC1)NC1CC1 (configuration not stated) | inactive: -5.34% | –
Cc1ccccc1NC(=O)c1cc(S(=O)(=O)Nc2cccc(C(=O)O)c2)ccc1Cl | inactive: -6.95% | –
COc1ccc(C(=O)NCC(=O)N/N=C/c2ccc([N+](=O)[O-])s2)cc1OC | – | inconclusive: 20.6 µM [activator, single point]
Cc1ccc(-c2nnc(-n3ncc(C#N)c3N)c3ccccc23)cc1C | – | inconclusive: 11.6 µM [activator, single point]
Clc1cccc(CN2CCN(Cc3nc(CCc4ccccc4)no3)CC2)c1 | – | inconclusive: 0.13 µM [activator, full curve, poor fit]
O=C(/C=C/c1ccccc1Cl)NCc1ccccc1 | – | inconclusive: 0.112 µM [activator, full curve, poor fit]
O=C(Nc1ccc(S(=O)(=O)NCc2ccco2)cc1)c1ccc(F)cc1 | – | inconclusive: 0.461 µM [activator, partial curve, poor fit]
Cn1nc(C(=O)NNC(=O)COc2ccccc2)c2ccccc2c1=O | inactive: 0.194% | –
Cc1ccc(S(=O)(=O)c2cccc(S(=O)(=O)N3CCCC3)c2)cc1S(=O)(=O)N1CCCC1 | inactive: -0.891% | –
OC(CN1C2=NCCN2c2ccccc21)c1ccc2c(c1)OCO2 (configuration not stated) | inactive: 18.7% [at 9.22 µM] | –
CCn1cc([N+](=O)[O-])c(C(=O)N2N=C(c3ccc(Cl)c(Cl)c3)CC2c2ccccc2O)n1 (configuration not stated) | – | inconclusive: 25.9 µM [activator, single point]
COc1cc(CC(=O)OCC(=O)c2ccc3c(c2)OCCO3)cc(OC)c1OC | – | active: 3.26 µM
CC(C)CN1CCC(=O)N([C@H](CSc2ccccc2)Cc2ccccc2)CC1 | – | inconclusive: 0.517 µM [activator, full curve, poor fit]
COCc1ccc(C(=O)N2CCc3c([nH]c4ccccc34)C2c2ccccn2)s1 (configuration not stated) | – | inconclusive: 29.1 µM [activator, single point]
Cc1ccc(-n2c(O)c(C=Nc3ccccc3-c3n[nH]c(=S)[nH]c3=O)c3ccccc3c2=O)cc1C | – | inconclusive: 29.1 µM [activator, single point]
Oc1cc2c(cc1CN1CCc3ccccc3C1)OCO2 | inactive: -4.28% | –

Rewritten in CSV form: entries from further up.
SMILES,re-replication activation,Potency
OC(CN1C2=NCCN2c2ccccc21)c1ccc2c(c1)OCO2 (configuration not stated),inactive: 18.7% [at 9.22 µM],–
CC(C)CN1CCC(=O)N([C@H](CSc2ccccc2)Cc2ccccc2)CC1,–,"inconclusive: 0.517 µM [activator, full curve, poor fit]"
Cc1ccc(-n2c(O)c(C=Nc3ccccc3-c3n[nH]c(=S)[nH]c3=O)c3ccccc3c2=O)cc1C,–,"inconclusive: 29.1 µM [activator, single point]"

Later entries:

SMILES | re-replication activation | Potency
N#Cc1ccc(C(=O)Nc2cc(S(=O)(=O)N3CCCC3)ccc2OCC(F)(F)F)cc1 | – | inconclusive: 29.1 µM [activator, single point]
Cc1csc2nc(CNS(=O)(=O)c3ccc(-c4ccccc4)cc3)cn12 | inactive: -4.49% | –
COc1ccc(NS(=O)(=O)c2cccc(C(=O)NCc3ccccc3CN3CCOCC3)c2)cc1 | – | inconclusive: 14.6 µM [activator, partial curve, poor fit]
Cc1[nH]c2ccccc2c1/C=C/c1nc2ccccc2c(=O)[nH]1 | – | active: 16.4 µM
CCc1nc(Sc2nnnn2-c2ccccc2)c2c3c(sc2n1)CCCC3 | – | inconclusive: 25.9 µM [activator, single point]
CC(C)NCC(O)c1ccc(O)c(O)c1 (configuration not stated) | – | inconclusive: 33.5 µM [activator, single point]
CC1=C(C(=O)Nc2cc(C(=O)N3CCC(C)CC3)ccc2C)SCCO1 | – | inconclusive: 8.2 µM [activator, partial curve, poor fit]
O=C(CCn1c(=S)[nH]c2cc3c(cc2c1=O)OCO3)NCc1cccc(Cl)c1 | – | inconclusive: 23.1 µM [activator, single point]
OCC#CCSc1nnc(-c2ccccc2Br)o1 | – | inconclusive: 25.9 µM [activator, single point]
Cc1onc(-c2c(F)cccc2Cl)c1-c1nnc(-c2ccc(C(F)(F)F)cc2)o1 | – | inconclusive: 3.66 µM [activator, partial curve, poor fit]
O=C(N/N=C\c1c(O)ccc2ccccc12)c1ccc(S(=O)(=O)N2CCCCC2)cc1 | – | inconclusive: 8.2 µM [activator, partial curve, poor fit]
COCCNC(=S)NNC(=O)c1cccs1 | – | inconclusive: 6.51 µM [activator, partial curve, poor fit]
Cc1cc(=O)oc2cc(OCC(=O)N/N=C/c3cc([N+](=O)[O-])ccc3O)ccc12 | – | inconclusive: 29.1 µM [activator, single point]
CC(C)(C)NC(=O)[C@@H]1C[C@@H]2CCCC[C@@H]2CN1C[C@@H](O)[C@H](Cc1ccccc1)NC(=O)[C@H](CC(N)=O)NC(=O)c1ccc2ccccc2n1 | – | inconclusive: 0.708 µM [activator, full curve, poor fit]
Cc1cc(Cl)cc(C)c1OCCCCCn1ccnc1 | – | inconclusive: 6.51 µM [activator, partial curve, poor fit]
COc1ccc(/C=C/CN2CCC(CO)(Cc3ccccc3Cl)CC2)cc1 | – | inconclusive: 6.51 µM [activator, partial curve, poor fit]
COc1ccccc1CN1CC(C(=O)N(C)Cc2[nH]c3ccccc3c2C)CCC1=O (configuration not stated) | inactive: -4.15% | –
Cc1cc(C)c2nc(N(CCCN(C)C)C(=O)C3=COCCO3)sc2c1 | – | inconclusive: 20.6 µM [activator, single point]
COc1ccc(/C=C/c2nc(-c3ccccc3)cc(=O)[nH]2)cc1 | – | inconclusive: 29.1 µM [activator, single point]
CCOc1ccc(Nc2nc3c(c(=O)[nH]2)CCCC3)cc1 | – | inconclusive: 20.6 µM [activator, partial curve, poor fit]
CCCCNC(=S)N1CCn2cccc2C1c1ccc(F)cc1 (configuration not stated) | – | inconclusive: 32.6 µM [activator, partial curve, poor fit]
Cc1ccccc1OCCCCCCN1CCNCC1 | inactive: -2.68% [at 9.22 µM] | –
Clc1cccc(CN2COc3c(cc(Cl)c4cccnc34)C2)c1 | – | inconclusive: 6.51 µM [activator, full curve]

SMILES | re-replication activation | Potency
CSc1ccc(S(=O)(=O)N2CC(=O)Nc3ccccc32)cc1 | – | inconclusive: 2.91 µM [activator, single point]
COc1ccc(C(=O)NCCNc2nc3ccc(C)cc3cc2C#N)cc1 | – | inconclusive: 18.4 µM [activator, single point]
O=C1NN=C(c2ccccc2)CC1c1ccc(Cl)cc1Cl (configuration not stated) | – | active: 18.4 µM
O=C(NCCCN1CCOCC1)c1ccc2c(c1)N(Cc1c(F)cccc1Cl)C(=O)c1ccccc1S2 | inactive: 16.9% | –
CCCc1ccc(OCC(=O)Nc2cc(S(=O)(=O)CC)ccc2O)cc1 | – | inconclusive: 29.1 µM [activator, single point]
COc1cc(/C=N/NC(=O)/C(=C/c2ccccc2)CCO)ccc1O | – | inconclusive: 0.0065 µM [activator, full curve, poor fit]
COc1cc(C2C(C(=O)/C=C/c3ccccc3)=C(O)C(=O)N2c2ccccn2)ccc1O (configuration not stated) | – | inconclusive: 6.51 µM [activator, single point]
CC(=O)c1ccc(Cl)c(Cl)c1Cl | – | inconclusive: 0.231 µM [activator, single point]
Cc1ccc(C)c(OCc2cc(C(=O)NC3CCN(Cc4ccccc4)CC3)no2)c1 | – | inconclusive: 29.1 µM [activator, single point]
CCOC(CNc1ncnc2sc(-c3ccccc3)cc12)OCC | inactive: -2.49% | –
CCN(C(=O)c1cccnc1SC)C12CC3CC(CC(C3)C1)C2 | – | inconclusive: 29.1 µM [activator, single point]
O=c1c2ccccc2nc(/C=C/c2cccc(Br)c2)n1CCCO | – | inconclusive: 29.1 µM [activator, single point]
Cc1cccc(NC(=O)CCN2C(=O)C3C4CCC(C4)C3C2=O)c1C (configuration not stated) | – | inconclusive: 23.1 µM [activator, partial curve, poor fit]
CCC(C)NCC(O)(c1ccc(Cl)cc1)c1ccc(Cl)cc1 (configuration not stated) | – | inconclusive: 23.1 µM [activator, single point]
Cc1ccc2c(c1)C(=O)C(=O)N2Cc1ccccc1 | – | inconclusive: 20.6 µM [activator, single point]
COc1ccc(F)cc1S(=O)(=O)NCC(=O)NCc1cc(=O)n(C)c(=O)n1C | inactive: 10.7% | –
O=C1OC(c2ccccc2)=NC12CC2c1ccc(Cl)cc1 (configuration not stated) | – | inconclusive: 20.6 µM [activator, single point]
O=C(Nc1ncccc1O)c1c(O)c2ccccc2[nH]c1=O | – | inconclusive: 25.9 µM [activator, single point]
CCC(=O)Nc1c(-c2ccc(C)cc2)nc2ccc(C)cn12 | inactive: -5.32% | –
COCCn1c(Cc2ccccc2)nnc1SCc1nc2ccccc2c(=O)[nH]1 | inactive: -1.43% | –
CC(C)C(=O)OCC(=O)[C@@]12OC(C3CCCCC3)O[C@@H]1CC1C3CCC4=CC(=O)C=C[C@]4(C)C3[C@@H](O)C[C@@]12C (some centres not stated) | – | active: 11.9 µM
